Experimental data: PubChem BioAssay AID493246 (Drosophila RNAi Screening Center, 2011)
In all, the deposit lists about 21,000 reagents; below is a random part of those that have a named target and a result. Of all reagents, 429 (2%) got an active call. 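Values are raw and not normalised between plates; calls rest on per-plate z-scores that were not deposited.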 Not given: the amount of reagent, the time to read-out.

Purpose: 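Genes fly cells need to grow and stay alive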 (primary screen)
Cell system: Drosophila Kc and S2R+ cells
Reagents: long dsRNA against Drosophila genes
Detection: 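Cell number per well after knock-down, printed as raw plate values; calls were based on per-plate z-scores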
Direction: Kc cell number and S2R+ cell number: higher = more cells remaining
Call rule: 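Counted as a hit if cell number falls by a z-score of at least 3 within its plate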

The opening 3 records as a preview:
gene	DRSC id	Kc cell number, rep 1	Kc cell number, rep 2	S2R+ cell number, rep 1	S2R+ cell number, rep 2	Call
CG33095	DRSC14441	1.28e6	1.30e6	9.32e5	1.04e6	inactive
js	DRSC15004	1.29e6	1.31e6	1.15e6	1.33e6	inactive
Adk1	DRSC15514	1.65e6	1.55e6	1.34e6	1.45e6	inactive

The listing, from the first entry:
gene	DRSC id	Kc cell number, rep 1	Kc cell number, rep 2	S2R+ cell number, rep 1	S2R+ cell number, rep 2	Call
CG33095	DRSC14441	1.28e6	1.30e6	9.32e5	1.04e6	inactive
js	DRSC15004	1.29e6	1.31e6	1.15e6	1.33e6	inactive
Adk1	DRSC15514	1.65e6	1.55e6	1.34e6	1.45e6	inactive
CG6220	DRSC06969	1.67e6	1.81e6	1.45e6	1.55e6	inactive
Dsp1	DRSC20315	3.01e5	3.43e5	3.28e5	4.01e5	active
CG3165	DRSC00573	1.32e6	1.33e6	9.78e5	1.07e6	inactive
CG7300	DRSC03044	1.27e6	1.27e6	1.01e6	8.58e5	inactive
CG4950	DRSC10463	1.58e6	1.82e6	1.51e6	1.68e6	inactive
bsk	DRSC03499	1.47e6	1.52e6	1.20e6	1.29e6	inactive
Gagr	DRSC10441	1.59e6	1.62e6	1.42e6	1.49e6	inactive
CG32454	DRSC11652	1.45e6	1.47e6	1.23e6	1.30e6	inactive
CG46491	DRSC06565	1.31e6	1.31e6	8.88e5	9.19e5	inactive
CG46491	DRSC06566	1.49e6	1.57e6	1.15e6	1.24e6	inactive
Ir48c	DRSC06154	1.59e6	1.58e6	1.17e6	1.33e6	inactive
Tbc1d15-17	DRSC00313	1.29e6	1.34e6	9.77e5	9.74e5	inactive
CG33017	DRSC06573	1.46e6	1.60e6	1.18e6	1.27e6	inactive
CG33017	DRSC06574	1.46e6	1.55e6	1.15e6	1.20e6	inactive
intr	DRSC14528	5.71e5		8.54e5		inactive
Rhp	DRSC20279	1.38e6	1.43e6	1.05e6	1.14e6	inactive
CG6928	DRSC10749	1.36e6	1.37e6	1.27e6	1.26e6	inactive
CG13160	DRSC06284	1.72e6	1.84e6	1.48e6	1.61e6	inactive
CG11563	DRSC14327	1.53e6	1.54e6	9.96e5	1.12e6	inactive
Mp	DRSC10193	1.41e6	1.43e6	1.26e6	1.13e6	inactive
Mp	DRSC11029	1.27e6	1.27e6	1.16e6	1.26e6	inactive
Mp	DRSC11030	1.45e6	1.44e6	1.10e6	1.15e6	inactive
Sgt1	DRSC16519	1.66e6	1.81e6	1.31e6	1.46e6	inactive
CG17593	DRSC00504	1.91e6	1.59e6	1.19e6	1.34e6	inactive
vers	DRSC10715	1.20e6	1.24e6	1.21e6	1.16e6	inactive
Ugt37D1	DRSC02645	1.51e6	1.60e6	1.15e6	1.26e6	inactive
mRpL28	DRSC02724	1.45e6	1.44e6	9.94e5	1.13e6	inactive
Six4	DRSC11881	1.42e6	1.78e6	1.21e6	1.29e6	inactive
Pink1	DRSC18361	4.80e5		8.07e5		inactive
CG13040	DRSC09921	1.47e6	1.71e6	1.36e6	1.54e6	inactive
Nrx-IV	DRSC11238	1.34e6	1.51e6	1.28e6	1.17e6	inactive
CG32988	DRSC02692	1.57e6	1.67e6	1.22e6	1.42e6	inactive
CG14756	DRSC06491	1.48e6	1.50e6	1.20e6	1.28e6	inactive
Ugt35B1	DRSC16893	1.55e6	1.63e6	1.39e6	1.45e6	inactive
Pvf1	DRSC20024	1.54e6	1.60e6	1.18e6	1.27e6	inactive
Myc	DRSC18762	8.23e5	8.98e5	4.24e5	5.97e5	active
CG3544	DRSC00613	1.29e6	1.29e6	8.90e5	1.00e6	inactive
